Literature values as cited in US7955620B2, “Stable oral composition” (Sun Pharmaceutical Industries Limited, priority 2003, dated 2011).

Settings: 75% RH and 40° C., alone or in combination with various excipients

For `Clc1ccc2c(c1)CCc1cccnc1C2=C1CCNCC1` [Desloratadine, 8-chloro-6,11-dihydro-11-(4-piperidylidene)-5H-benzo[5,6]-cyclohepta[1,2-b]pyridine], the Discoloration on storage is listed as “discolor”.
